Assay results as given in article PMC12935370.
No constants are given. Whether binding was seen depends on the method and setting. Binding seen in cells or lysates may run through a third protein. Some binding calls cover weakened binding; strength is not graded here. Sequences can lack the tags named with a protein.

Chains of the proteins cited; added tags and fusions are not shown.
UniProt P57780: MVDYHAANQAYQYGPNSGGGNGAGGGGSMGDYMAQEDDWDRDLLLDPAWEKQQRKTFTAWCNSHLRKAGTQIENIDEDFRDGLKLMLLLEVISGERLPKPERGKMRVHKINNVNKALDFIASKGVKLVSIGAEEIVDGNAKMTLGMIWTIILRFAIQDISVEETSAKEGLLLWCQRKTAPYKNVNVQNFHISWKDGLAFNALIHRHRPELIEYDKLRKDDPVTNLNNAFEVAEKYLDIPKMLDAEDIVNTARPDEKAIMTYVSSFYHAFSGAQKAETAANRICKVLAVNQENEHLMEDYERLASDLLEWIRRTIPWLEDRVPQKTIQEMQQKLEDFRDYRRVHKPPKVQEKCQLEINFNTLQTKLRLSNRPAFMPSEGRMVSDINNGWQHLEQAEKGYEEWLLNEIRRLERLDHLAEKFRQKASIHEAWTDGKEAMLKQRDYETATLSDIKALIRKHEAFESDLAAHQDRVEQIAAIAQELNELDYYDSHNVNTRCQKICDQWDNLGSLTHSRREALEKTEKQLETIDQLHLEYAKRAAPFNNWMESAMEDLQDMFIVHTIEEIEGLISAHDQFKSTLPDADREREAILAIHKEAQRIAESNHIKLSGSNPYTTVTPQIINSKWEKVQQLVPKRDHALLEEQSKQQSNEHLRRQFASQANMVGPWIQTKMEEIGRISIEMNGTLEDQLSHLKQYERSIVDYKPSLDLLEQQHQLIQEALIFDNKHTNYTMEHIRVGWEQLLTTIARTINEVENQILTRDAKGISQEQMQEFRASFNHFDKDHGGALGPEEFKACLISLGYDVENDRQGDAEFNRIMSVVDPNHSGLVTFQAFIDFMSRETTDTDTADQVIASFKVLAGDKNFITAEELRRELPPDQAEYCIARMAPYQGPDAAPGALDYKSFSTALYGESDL
UniProt Q9WVQ1: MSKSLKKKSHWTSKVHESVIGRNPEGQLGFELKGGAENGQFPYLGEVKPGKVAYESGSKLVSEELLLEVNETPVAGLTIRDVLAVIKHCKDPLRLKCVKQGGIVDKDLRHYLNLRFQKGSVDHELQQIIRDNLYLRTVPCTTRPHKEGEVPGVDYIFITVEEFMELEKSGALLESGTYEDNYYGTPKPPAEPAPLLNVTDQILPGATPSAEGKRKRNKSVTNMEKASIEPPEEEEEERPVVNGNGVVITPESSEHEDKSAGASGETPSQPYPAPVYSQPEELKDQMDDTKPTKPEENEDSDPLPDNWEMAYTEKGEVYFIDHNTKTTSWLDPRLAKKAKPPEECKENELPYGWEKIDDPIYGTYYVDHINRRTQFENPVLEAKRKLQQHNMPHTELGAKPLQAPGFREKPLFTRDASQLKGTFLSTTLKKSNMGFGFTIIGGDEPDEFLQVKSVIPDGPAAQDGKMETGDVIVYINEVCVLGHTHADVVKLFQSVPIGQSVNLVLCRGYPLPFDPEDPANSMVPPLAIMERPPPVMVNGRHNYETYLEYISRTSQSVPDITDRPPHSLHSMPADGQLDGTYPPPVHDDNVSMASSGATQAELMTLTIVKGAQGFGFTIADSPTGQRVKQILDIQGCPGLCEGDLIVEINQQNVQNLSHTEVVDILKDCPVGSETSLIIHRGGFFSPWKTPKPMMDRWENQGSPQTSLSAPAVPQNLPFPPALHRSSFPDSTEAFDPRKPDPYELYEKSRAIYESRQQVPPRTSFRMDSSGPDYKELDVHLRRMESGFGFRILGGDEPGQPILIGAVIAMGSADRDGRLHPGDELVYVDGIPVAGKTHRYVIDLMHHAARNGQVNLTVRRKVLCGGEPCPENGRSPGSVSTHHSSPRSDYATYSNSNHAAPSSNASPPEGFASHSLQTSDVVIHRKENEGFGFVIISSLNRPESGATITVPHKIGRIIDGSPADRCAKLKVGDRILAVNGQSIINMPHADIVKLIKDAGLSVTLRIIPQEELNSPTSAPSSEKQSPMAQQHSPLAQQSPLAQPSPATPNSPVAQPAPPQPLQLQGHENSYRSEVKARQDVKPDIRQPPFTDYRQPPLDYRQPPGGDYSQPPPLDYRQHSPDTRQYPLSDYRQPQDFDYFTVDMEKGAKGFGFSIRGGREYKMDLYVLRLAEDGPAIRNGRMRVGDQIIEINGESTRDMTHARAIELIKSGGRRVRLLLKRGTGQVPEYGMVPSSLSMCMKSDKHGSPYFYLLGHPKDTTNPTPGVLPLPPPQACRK

Tests used:
FLAG-α-actinin-4 [1] = molecular target: FLAG-α-actinin-4 (UniProt P57780); assay: co-IP; human embryonic kidney T antigen cells cotransfected with all three: GFP-Synpo, GFP-MAGI-2 and FLAG-α-actinin-4; Western blot
[2] = molecular target: FLAG-MAGI-2 (membrane-associated guanylate kinase inverted 2) (UniProt Q9WVQ1); assay: co-IP; human embryonic kidney T antigen cells cotransfected with one GFP-tagged and one FLAG-tagged protein (whole proteins and truncated mutants of MAGI-2); Western blot
FLAG-α-actinin-4 [3] = molecular target: FLAG-α-actinin-4 (UniProt P57780); assay: as above

Measured: binding

B1: GFP-Synpo (synaptopodin) (protein, UniProt Q8CC35 1-929)
chain: MLGAHFPPPPLGASEGRAAPCTFQIPDGSYRCLALEAEESSSEDGLQGEVRLVDLEEEGTSQSRANHGTPPLSRAPAIIQPSSCHREARGGFQRSDRPSHDWDVVQARKVMTASGSSSPVPRVAQKPALGRSTSFTENDLKEAKARSQQIAAQLTTPPSSNSRGVQLFNRRRQRVNEFTLESRGQRSPKLNQEALQTGRPLSPIGHAPGPSVKPTSPSKPGSPKHPSPQSPSRGVAGHIMEGYSEEASLLRHLEKVASEEEEVPLVVYLKENAALLTANGLHLSQSRETQQSSPNPPDTEVPSPAADINQNPSSPNATLTTLASSSHHSQPTADINQNPPAAITPVPQNSSQAQCSPNGTLDSKPGTLCADDGQSPVPAEEVRSSILLIDKVSAPPSAASTFSREATPLSSSGPPAADLMSSSLLIDMQPSTLVAPAEQEVPGHVAVTTPTKVYSEVHLTLAKPASVVNRTARPFGIQSPGTSQIEQSPMMGRRQFGEKAWAPPASSMADRSPQPQRHIMSRSPMVERRLLGQRSPVLERRPLGNFTPPPTYAETLSTAPVASRVRSPPSYSTLYPSSDPKPSHLKGQVAPANKTGILEESMARRGSRKSMFTFVEKPKVTPNPDLLDLVQTADEKRRQRDHGEVGMEEEPFALGAEASNFQQEPIARDRASPAAAEEAVPEWASCLKSPRIQAKPKPKPNQNLSEASGKGAELYARRQSRMEKYVIESSGHAELARCPSPTMSLPSSWKYTTNAPGGFRVASLSPARTPPASLYHGYLPENGVLRPEPTKQQPYQMRPSLYALSPVKEPAKASSRATSSRTPSRTVSPRAASPAKPSSLDLVPNLPRAGLPPSPALPRPSRSSPGLYTAPVQDSLQPTAVSPTYSSDISPVSPSRAWSPRAKQAPRPSFSTRNAGIEAQVWKPSFCFK
binds: all assays above
